For 42 sequences, binding signal results are on record in PMC7819943, “Rice protein-binding microarrays: a tool to detect cis-acting elements near promoter regions in rice”.

The chains behind the UniProt entries cited, without tags or fusion partners.
UniProt Q0JBA9, entry or part of it: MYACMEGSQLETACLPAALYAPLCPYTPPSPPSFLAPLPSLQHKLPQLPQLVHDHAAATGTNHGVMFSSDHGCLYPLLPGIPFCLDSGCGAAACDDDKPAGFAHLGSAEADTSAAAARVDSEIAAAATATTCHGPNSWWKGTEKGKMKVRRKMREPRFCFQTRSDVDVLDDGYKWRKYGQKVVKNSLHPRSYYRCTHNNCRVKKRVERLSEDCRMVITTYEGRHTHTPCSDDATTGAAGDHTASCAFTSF

Some of the results follow.

The target of this experiment is OsWRKY34 (Oryza sativa, UniProt Q0JBA9 1-250). Briefly: protein-binding microarray (RPBM); PBS, 2% BSA, 51.3 ng/ul salmon testes DNA, 50 uM zinc acetate, 200 nM TF, 25 C, 1 h; high values mean tight binding. To be noted: protein: recombinant; tags: N-terminal polyhistidine and DsRed monomer fusion (pET32a); label: CyDye5-dUTP incorporated in the synthesized complementary strand; 3' TTTTT single-stranded linker to array surface; dsDNA, one strand shown. In a few lines: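 In PBS with 2% BSA, salmon testes DNA and 50 µM zinc acetate, 200 nM protein was incubated on a custom Agilent array at 25 °C for 1 h and then washed off. The array had been made double-stranded by primer extension with Cy5-dUTP and blocked with 2% BSA. The proteins were transcription factors fused N-terminally to polyhistidine and DsRed, expressed in E. coli BL21-CodonPlus and purified on Ni–NTA. The binding signal is per-feature fluorescence intensity (arbitrary units) from an Axon 4000B scanner.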
“GTTTTCTAGTTTTTTTTATCTTGTCCGTCCTCACATCACCCGGAGTCACCTAGTGCAG”: the binding signal is 9560 fluorescence intensity (a.u.).
For the sequence “CGCCATGGTTATATTTGTGGTATCCTTTTCTATGTTTAAGCGGAGTCACCTAGTGCAG”, the binding signal is 10200 fluorescence intensity (a.u.).
The same measure for “TAATGGATTTTGAGTTTTTATTTGCAACATTTGATTACTCCGGAGTCACCTAGTGCAG”: 9540 fluorescence intensity (a.u.); for “CTACTGCCAATCCCGGCCCACGGCCCAATCCAGCCGCGCCCGGAGTCACCTAGTGCAG”: 9510 fluorescence intensity (a.u.).
Next, “ACCTCTATTTTATTTTAAGTGCAGTTGTGGTTTCCATATCCGGAGTCACCTAGTGCAG”: 8350 fluorescence intensity (a.u.); “CTTCTCTTGCTTTCCTCCACTTTTGTTGCTCTCAGCTTTTCGGAGTCACCTAGTGCAG”: 10800 fluorescence intensity (a.u.); “TGGTGGTGGGGAGGGTATTTATACCGGCTGACGAGGCGTGCGGAGTCACCTAGTGCAG”: 9080 fluorescence intensity (a.u.).
Consider “GAATGAACTCCACTTTGGGCCATATCCTATCATTAGGACACGGAGTCACCTAGTGCAG”, for which the binding signal is 10300 fluorescence intensity (a.u.).
As for “TTTTTTATTTTTGCAACTTGGGCTCTCTTATCTTTATTTCCGGAGTCACCTAGTGCAG”, the binding signal is 14400 fluorescence intensity (a.u.).
The same measure for “GGTTTTGTACGGTTTTTCACGGTTACCGCGGTAACCGTTGCGGAGTCACCTAGTGCAG”: 10000 fluorescence intensity (a.u.).
Next, “GTGAGGTGTCTTTGTATATATCCTTTTTGACCTTTCTAGCCGGAGTCACCTAGTGCAG”: 16100 fluorescence intensity (a.u.).
Next, “GTACGACAACCACATACAACCCATGTCTGACTCAACTAGTCGGAGTCACCTAGTGCAG”: 8420 fluorescence intensity (a.u.); “TTTCCGCATTTCCGCTCCTCTCTTTTTTACCCTTGACATGCGGAGTCACCTAGTGCAG”: 8530 fluorescence intensity (a.u.).
“ATCAATATGAATTTGTGCTGTCTGGTATGAGTTATTCCAACGGAGTCACCTAGTGCAG”: the binding signal is 8080 fluorescence intensity (a.u.).
For the sequence “TAGCGAGGTACCTATCATGACTTCGTCAGTCTCATATTTCCGGAGTCACCTAGTGCAG”, the binding signal was 9490 fluorescence intensity (a.u.).
The same measure for “AAGAAGCATTTGGCTGGTTTTTTTTGCATATAGGTCCCTTCGGAGTCACCTAGTGCAG”: 8090 fluorescence intensity (a.u.).
Next, “TGGAGAGCGTTGCTTTTTTTGGGCGGGTTTGGATTTTTATCGGAGTCACCTAGTGCAG”: 21600 fluorescence intensity (a.u.); “ATCTCGCTTACGCTCTCACGCTGTCGCCATCTCGCGCCACCGGAGTCACCTAGTGCAG”: 8340 fluorescence intensity (a.u.); “CGTCTACCAACAACTAACCGCCATCTCTCTCCTCGCTTTTCGGAGTCACCTAGTGCAG”: 11200 fluorescence intensity (a.u.).
The same measure for “ACCGTCTCTTTCTTGTTGCAGAGCGCCGCGCCCAACCGGCCGGAGTCACCTAGTGCAG”: 8460 fluorescence intensity (a.u.).
As for “GTTTCCTTTCCCCGCGGATTAATAAACACTCGTCGAGCAACGGAGTCACCTAGTGCAG”, the binding signal was 9710 fluorescence intensity (a.u.).
The same measure for “CCAATATCACGTTGTCCTAGCTCTGCCAACGACTTCATCTCGGAGTCACCTAGTGCAG”: 8320 fluorescence intensity (a.u.); for “TATATTCATTACTCCGTCCCTTAATATAAGAGATTTTGACCGGAGTCACCTAGTGCAG”: 8040 fluorescence intensity (a.u.); for “GGAGTGGTGGCGTGGTGTGTGGGTTCGGAGATGGATTCTACGGAGTCACCTAGTGCAG”: 8800 fluorescence intensity (a.u.).
Next, “TGTGCTCCAACAGTTTAAAGTCAGAATAGCATTTCTTTTTCGGAGTCACCTAGTGCAG”: 8450 fluorescence intensity (a.u.); “CTCCACCTGTCGCCTAAACCCTAGCTCGCATCTCGAGGCACGGAGTCACCTAGTGCAG”: 8940 fluorescence intensity (a.u.).
On to “AGTTGTCCTGCTTTTTTGCTTTCCTAATCTGTTTCCATTTCGGAGTCACCTAGTGCAG”, for which the binding signal is 13300 fluorescence intensity (a.u.).
The same measure for “CTCAAACCCTCGCTTCCGCCGACCACACGGCCGCACCATGCGGAGTCACCTAGTGCAG”: 10500 fluorescence intensity (a.u.); for “TTACATTTCTATCAAAATCTCATGTTTTTCTTATTCCTACCGGAGTCACCTAGTGCAG”: 9600 fluorescence intensity (a.u.).
In the case of “CTATCCGGTATCTAATTCTTTGTACTCTCCACTTACCTCTCGGAGTCACCTAGTGCAG”, the binding signal is 11900 fluorescence intensity (a.u.).
As to “TTAGAAGTGCTTCATGGGTTTGGTTCTACTTCTGTTCTTTCGGAGTCACCTAGTGCAG”, the binding signal is 13000 fluorescence intensity (a.u.).
Regarding “GGCACAAACACCTACACGGCTACACCTCATGAGTCATGATCGGAGTCACCTAGTGCAG”, the binding signal is 8290 fluorescence intensity (a.u.).
Consider “ATTTATATTTGTAACTGTTTTTCTATTATGTGTTTCCTTCCGGAGTCACCTAGTGCAG”, for which the binding signal is 8720 fluorescence intensity (a.u.).
Consider “TCCCACGACCACCTCGCCTCGCCACCATATCTGCAGCTCCCGGAGTCACCTAGTGCAG”, for which the binding signal was 12100 fluorescence intensity (a.u.).
“ATGAAGCAACATTAACGCTAGGTTTTTATCTGTTTAAGCCCGGAGTCACCTAGTGCAG”: the binding signal is 8510 fluorescence intensity (a.u.).
Turning to “TTCCCGCGTTTAATTAGTACGTATCACCTCTCATGCATTTCGGAGTCACCTAGTGCAG”, the binding signal is 12300 fluorescence intensity (a.u.).
In the case of “GTCAACTACAGGATCATCCATGTGATTTCCTGCTTCTTCTCGGAGTCACCTAGTGCAG”, the binding signal is 8910 fluorescence intensity (a.u.).
As to “GGCTCCCTGGTAGGCCCGAAACCCTCACCTCGTTCTCTATCGGAGTCACCTAGTGCAG”, the binding signal is 8330 fluorescence intensity (a.u.).
For the sequence “TCTCTCTCGTCTCTCCTCTCTCGTCTCGTGTATAAATTTCCGGAGTCACCTAGTGCAG”, the binding signal was 8800 fluorescence intensity (a.u.).
Regarding “ATCAGAAACAGTACGTGCCACTATGCATGCAAATTAATCACGGAGTCACCTAGTGCAG”, the binding signal was 8120 fluorescence intensity (a.u.).
Next, “CCCACTTCTCCTCATCCCAATCTCGAATCCTCTGACTCCGCGGAGTCACCTAGTGCAG”: 8830 fluorescence intensity (a.u.).
The same measure for “TGACACATGAGGTTCTTTTTTTTTCTTTTGTACTCTTCTCCGGAGTCACCTAGTGCAG”: 13500 fluorescence intensity (a.u.).
